Measured values: PMC10163693
Results are given in words; binding and its absence hold for the method and conditions named. In cells and extracts the contact can be indirect. Some binding calls cover weakened binding; strength is not graded here. Tags and fused reporters may be left off the sequences shown.

The chains behind the UniProt entries cited, without tags or fusion partners.
UniProt P46937: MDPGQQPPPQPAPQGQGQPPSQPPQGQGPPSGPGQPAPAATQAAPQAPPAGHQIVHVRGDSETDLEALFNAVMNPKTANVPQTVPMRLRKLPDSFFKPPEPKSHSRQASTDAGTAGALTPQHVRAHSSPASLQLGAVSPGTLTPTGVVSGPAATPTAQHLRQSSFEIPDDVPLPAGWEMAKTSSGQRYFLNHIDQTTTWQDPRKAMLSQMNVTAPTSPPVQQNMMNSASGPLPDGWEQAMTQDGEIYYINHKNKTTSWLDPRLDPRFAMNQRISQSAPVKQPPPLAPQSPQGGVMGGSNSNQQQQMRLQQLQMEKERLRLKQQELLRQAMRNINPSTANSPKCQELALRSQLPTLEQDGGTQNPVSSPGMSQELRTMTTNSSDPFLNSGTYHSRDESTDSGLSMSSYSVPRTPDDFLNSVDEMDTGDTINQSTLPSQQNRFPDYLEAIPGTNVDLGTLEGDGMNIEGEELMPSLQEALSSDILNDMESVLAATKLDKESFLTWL

Biological target: FLAG-YAP1 (UniProt P46937)
Assay: co-IP; cells transfected with Myc-NF1 fragments and FLAG-YAP1; lysates on anti-FLAG affinity beads overnight at 4 °C with 1 mg/ml BSA; washed with 50 mM Tris pH 8.0, 150 mM NaCl, 0.1% Triton, 5 mM EDTA; western blot

B1: Myc-NF1^2560-2818 (domain or fragment, UniProt P21359-2 2560-2818)
chain: TQRISSSQQHPHLRKVSVSESNVLLDEEVLTDPKIQALLLTVLATLVKYTTDEFDQRILYEYLAEASVVFPKVFPVVHNLLDSKINTLLSLCQDPNLLNPIHGIVQSVVYHEESPPQYQTSYLQSFGFNGLWRFAGPFSKQTQIPDYAELIVKFLDALIDTYLPGIDEETSEESLLTPTSPYPPALQSQLSITANLNLSNSMTSLATSQHSPGIDKENVELSPTTGHCNSGRTRHGSASQVQKQRSAGSFKRNSIKKIV
**Q.** How did the binding turn out when B1 was run?
**A.** binds

B2: Myc-NF1^AAAA (alanine substitution of the PPQY motif in NF1^2560-2818) (domain or fragment, UniProt P21359-2 2560-2818)
chain: TQRISSSQQHPHLRKVSVSESNVLLDEEVLTDPKIQALLLTVLATLVKYTTDEFDQRILYEYLAEASVVFPKVFPVVHNLLDSKINTLLSLCQDPNLLNPIHGIVQSVVYHEESAAAAQTSYLQSFGFNGLWRFAGPFSKQTQIPDYAELIVKFLDALIDTYLPGIDEETSEESLLTPTSPYPPALQSQLSITANLNLSNSMTSLATSQHSPGIDKENVELSPTTGHCNSGRTRHGSASQVQKQRSAGSFKRNSIKKIV
**Q.** B2 was tested. Which binding did it give?
**A.** no binding
